# Data source: PubChem BioAssay AID504764 (Drosophila RNAi Screening Center, 2011)
# Aim: 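Knock-downs that raise or lower a Notch target reporter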 (primary screen)
# System: Drosophila Kc167 cells
# Reagent: long dsRNA against Drosophila genes
# Timing: about 5 days (4 days dsRNA, then 24 h after transfection)
# Conditions: transfection of constitutively active membrane-tethered Notch lacking the extracellular domain, read 24 h later
# Detection: 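Light from a Notch-responsive E(spl)m3 luciferase reporter under active Notch, with control-promoter and no-Notch reporter wells to normalise; raw counts from paired wells a and b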
# Reading the numbers: induced reporter light, run 1, well a and induced reporter light, run 1, well b: higher = more light from the Notch target reporter with active Notch; control promoter light, run 1, well a and control promoter light, run 1, well b: higher = more light from the viral control promoter (cell number, transfection, viability); uninduced reporter light, run 1, well a: higher = more light from the Notch target reporter without active Notch
# Call rule: 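Wells with low control signal or poorly matching duplicates excluded; duplicates averaged; per source plate, z beyond ±2 for induced/control log2 ratio or beyond ±1.8 for induced/uninduced marks a hit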
# Meaning of the calls: active = modifier hit (raised or lowered Notch signal); inactive = not a hit
# The screen tested about 22,000 reagents; below is an unselected part of those with a known target gene and a result. Of all reagents, 403 (1.9%) were called active. 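Unnormalised raw counts per well; ratio z-scores behind the hit calls and whether each hit raises or lowers signal are not deposited.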 Unmarked entries are inactive. The numbers tell different reagents against one gene apart. Names joined by + are all predicted targets of the reagent. Not given: the amount of reagent.
gene,dsRNA no.,"induced reporter light, run 1, well a","induced reporter light, run 1, well b","control promoter light, run 1, well a","control promoter light, run 1, well b","uninduced reporter light, run 1, well a"
CG33695 + cana,1,89000,70450,1.19e5,1.30e5,6390
CG33695 + cana,2,1.39e5,1.37e5,75480,72490,16412
CG6569,1,1.74e5,1.74e5,1.61e5,1.73e5,12005
CG13247,1,1.34e5,1.02e5,1.12e5,82420,6535
Bem46,1,2.52e5,1.78e5,2.98e5,2.37e5,14978
CG11584,1,1.07e5,1.01e5,1.14e5,1.05e5,15055
PGRP-LD + Cralbp + Pmi,1,1.75e5,2.21e5,1.86e5,1.95e5,11875
bug (bunker gear),1,1.14e5,1.23e5,2.68e5,2.25e5,9992
CG16957,1,1.46e5,1.43e5,1.57e5,1.78e5,12665
CG8034,1,1.04e5,1.12e5,1.16e5,80500,10445
tna (tonalli),1,1.96e5,1.91e5,2.27e5,1.84e5,12515
tna (tonalli),2,88210,1.00e5,1.28e5,1.33e5,7632
nAChRalpha4 (nicotinic Acetylcholine Receptor alpha4),1,1.70e5,1.52e5,2.60e5,2.54e5,15020
CG12091,1,1.36e5,1.35e5,1.67e5,1.62e5,6065
PIG-H + Kmn2,1,2.17e5,1.70e5,2.20e5,2.20e5,15190
CG33640,1,1.26e5,1.31e5,1.37e5,1.51e5,9780
bora (aurora borealis),1,94800,73315,49225,48470,6065
nocte (no circadian temperature entrainment),1,1.47e5,1.14e5,1.33e5,1.22e5,14440
ND-B14.7 (NADH dehydrogenase (ubiquinone) B14.7 subunit),1,43450,35670,44465,56560,1792
CG31855,1,86790,96935,1.20e5,1.34e5,8765
tplus3a + tplus3b,1,69010,69600,68905,86990,6320
CG14072,1,1.46e5,1.41e5,78630,1.01e5,19120
CG17985,1,1.74e5,2.09e5,2.81e5,2.22e5,17830
Sec63 (Secretory 63),1,2.50e5,2.33e5,3.26e5,1.72e5,14105
CG14644,1,37200,45435,34790,32350,3450
CG7724,1,1.20e5,1.28e5,91810,98165,8888
CG6508,1,1.36e5,1.30e5,74910,87420,18700
CG34370,1,84135,67255,1.08e5,74750,6925
CG34370,2,41910,37970,35900,46730,2195
CG34370,3,37355,34480,34350,30175,1875
CG34370,4,36355,35770,44750,30265,2860
Or83a (Odorant receptor 83a),1,77900,95160,92075,87830,4680
Menl-2 + Menl-1,1,98730,73045,1.08e5,83920,6990
Menl-2 + Menl-1,2,1.22e5,94335,97760,71025,8160
rig (rigor mortis),1,93630,86555,1.44e5,2.17e5,6515
rig (rigor mortis),2,1.86e5,1.38e5,2.64e5,2.96e5,9555
"Polr2H (RNA polymerase II, I and III subunit H)",1,34345,31220,21715,22890,2685
CG18404,1,1.18e5,1.24e5,1.62e5,1.79e5,10480
sei (seizure),1,1.76e5,1.90e5,1.63e5,1.82e5,14970
CG42399,1,1.22e5,1.30e5,1.07e5,62665,8195
CG42399,2,2.02e5,1.50e5,1.21e5,81070,12900
CG12811,1,92330,93920,97945,81590,4540
"SdhCL (Succinate dehydrogenase, subunit C-like)",1,67755,45940,54615,44280,2315
SkpA (SKP1-related A),1,18430,20065,21590,29835,1510
Etl1,1,1.90e5,2.10e5,2.21e5,1.96e5,20460
cindr (CIN85 and CD2AP related),1,1.40e5,1.69e5,1.95e5,1.91e5,11525
cindr (CIN85 and CD2AP related),2,37230,32195,53885,51970,5560
Gr59c (Gustatory receptor 59c),1,1.82e5,1.47e5,1.53e5,1.50e5,13260
lncRNA:CR42862 (long non-coding RNA:CR42862),1,1.08e5,1.29e5,2.28e5,2.36e5,8165
RpL34b (Ribosomal protein L34b),1,89315,1.25e5,1.25e5,91945,4512
